Experimental data as given in article doi:10.1101/2021.12.08.471779.
Residue numbers refer to the chain shown, from its start. These are yes or no findings as the source states them, for the method shown. In cells and extracts the contact can be indirect. Some binding calls cover weakened binding; strength is not graded here.

By UniProt entry, the sequences of proteins in these tests, tags left out. Where a name states a change or a piece, a line headed by the entry shows the natural chain unless it says otherwise.
UniProt P02929, whole entry, looked up, stated change not applied: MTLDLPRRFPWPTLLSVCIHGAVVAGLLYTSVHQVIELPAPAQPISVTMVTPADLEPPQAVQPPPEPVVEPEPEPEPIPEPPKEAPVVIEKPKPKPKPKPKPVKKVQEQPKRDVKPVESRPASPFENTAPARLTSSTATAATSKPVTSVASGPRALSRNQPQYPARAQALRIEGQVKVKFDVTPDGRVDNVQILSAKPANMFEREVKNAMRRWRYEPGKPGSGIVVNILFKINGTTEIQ

Assays:
Assay in all cases: cross-linking
[1] = target: T1, FepA R126C (Escherichia coli K-12) (UniProt P05825)
T1 sequence: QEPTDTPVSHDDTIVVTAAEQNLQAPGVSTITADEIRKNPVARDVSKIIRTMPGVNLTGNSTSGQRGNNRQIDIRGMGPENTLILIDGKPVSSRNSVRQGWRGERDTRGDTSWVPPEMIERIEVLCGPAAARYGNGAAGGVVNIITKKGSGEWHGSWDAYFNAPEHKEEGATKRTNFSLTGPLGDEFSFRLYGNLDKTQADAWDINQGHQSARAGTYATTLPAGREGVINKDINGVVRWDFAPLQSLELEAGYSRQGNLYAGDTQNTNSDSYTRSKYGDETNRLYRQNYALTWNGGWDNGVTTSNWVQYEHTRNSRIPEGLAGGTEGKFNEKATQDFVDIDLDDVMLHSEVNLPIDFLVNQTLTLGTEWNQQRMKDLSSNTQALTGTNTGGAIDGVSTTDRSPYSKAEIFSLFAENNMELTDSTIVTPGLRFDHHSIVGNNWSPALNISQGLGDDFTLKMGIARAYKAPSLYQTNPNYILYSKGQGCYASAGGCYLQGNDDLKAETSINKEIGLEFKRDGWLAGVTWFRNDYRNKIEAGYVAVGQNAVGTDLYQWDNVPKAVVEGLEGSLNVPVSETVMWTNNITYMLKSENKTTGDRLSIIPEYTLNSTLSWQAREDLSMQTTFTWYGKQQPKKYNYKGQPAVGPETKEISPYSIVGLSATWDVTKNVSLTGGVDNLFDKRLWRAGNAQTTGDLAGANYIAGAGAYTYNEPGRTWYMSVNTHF

[2] = target: T2, FepA E120C (Escherichia coli K-12) (UniProt P05825)
T2 sequence: T1 sequence with E120C, C126R

[3] = target: T3, FepA S29C (Escherichia coli K-12) (UniProt P05825)
T3 sequence: T1 sequence with S29C, C126R

Row | binding [1] | binding [2] | binding [3] | Substance
1 | no binding | no binding | binds | TonB C18G Q160C (from UniProt P02929 1-239)
2 | no binding | no binding | no binding | TonB C18G A209C (from UniProt P02929 1-239)
3 | no binding | no binding | binds | TonB C18G R214C (from UniProt P02929 1-239)
4 | no binding | no binding | binds | TonB C18G R212C (from UniProt P02929 1-239)
5 | no binding | no binding | no binding | TonB C18G V206C (from UniProt P02929 1-239)
6 | no binding | no binding | binds | TonB C18G N208C (from UniProt P02929 1-239)
7 | no binding | no binding | binds | TonB C18G M201C (from UniProt P02929 1-239)
8 | no binding | no binding | binds | TonB C18G R204C (from UniProt P02929 1-239)
